Experimental findings from publication PMC6339880 are described below.

Amino acid sequences for entries named in this document (tags omitted). A change or cut given only in a name is not applied to a line headed by its entry.
UniProt P0AAI3: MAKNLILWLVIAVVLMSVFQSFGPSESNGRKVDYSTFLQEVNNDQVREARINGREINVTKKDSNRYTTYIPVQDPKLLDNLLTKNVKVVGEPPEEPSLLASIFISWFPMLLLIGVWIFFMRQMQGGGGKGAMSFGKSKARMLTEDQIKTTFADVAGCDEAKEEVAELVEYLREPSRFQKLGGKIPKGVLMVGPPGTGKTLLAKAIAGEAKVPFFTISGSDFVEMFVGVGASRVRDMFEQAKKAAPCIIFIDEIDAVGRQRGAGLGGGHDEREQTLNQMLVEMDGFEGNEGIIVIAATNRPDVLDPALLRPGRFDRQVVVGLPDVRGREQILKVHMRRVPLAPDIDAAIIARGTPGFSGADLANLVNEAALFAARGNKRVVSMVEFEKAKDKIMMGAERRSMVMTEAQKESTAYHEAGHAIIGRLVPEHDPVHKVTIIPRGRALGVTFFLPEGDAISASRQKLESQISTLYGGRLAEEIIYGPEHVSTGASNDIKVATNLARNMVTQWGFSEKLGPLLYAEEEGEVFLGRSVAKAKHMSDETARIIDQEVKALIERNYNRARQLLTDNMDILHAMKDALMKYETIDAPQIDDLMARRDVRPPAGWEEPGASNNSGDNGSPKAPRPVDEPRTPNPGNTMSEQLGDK

These are yes or no findings as the source states them, for the method shown. Binding seen in cells or lysates may run through a third protein. These calls come from enrichment with a bait or labelling near it, and not all partners need be listed.

The target in one assay is T1, Strep-LpxC (E. coli) (UniProt P0A725).
T1 sequence: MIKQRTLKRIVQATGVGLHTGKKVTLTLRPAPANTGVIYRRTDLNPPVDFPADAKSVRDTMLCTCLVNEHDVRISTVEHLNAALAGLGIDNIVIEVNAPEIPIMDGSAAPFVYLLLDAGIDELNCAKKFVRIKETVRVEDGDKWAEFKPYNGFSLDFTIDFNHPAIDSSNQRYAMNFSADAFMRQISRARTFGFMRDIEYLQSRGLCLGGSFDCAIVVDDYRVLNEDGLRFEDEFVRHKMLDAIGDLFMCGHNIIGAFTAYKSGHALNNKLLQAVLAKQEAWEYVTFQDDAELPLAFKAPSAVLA
Kind of assay: affinity purification with mass spectrometry; Strep-LpxC overproduced in E. coli BL21 Δarg/Δlys grown at 30°C (slow), 37°C (medium) or 40°C (fast growth); Strep-tactin affinity purification from the lysate; co-purified proteins identified by LC-MS/MS with a super-SILAC standard; enriched >2-fold over the Strep-tag empty-vector control, p<0.05, or 'LpxC only'.

A further assay deals with His6-MBP-FtsH (E. coli) (UniProt P0AAI3). The assay is described as follows: affinity purification with mass spectrometry; His6-MBP-FtsH overproduced in E. coli BL21 Δarg/Δlys grown at 30°C (slow), 37°C (medium) or 40°C (fast growth); Ni-NTA affinity purification from the lysate; co-purified proteins identified by LC-MS/MS with a super-SILAC standard; enriched >2-fold over the His6-MBP empty-vector control, p<0.05, or 'FtsH only'.

B1: BasR (protein, UniProt P30843 1-222)
chain: MKILIVEDDTLLLQGLILAAQTEGYACDSVTTARMAEQSLEAGHYSLVVLDLGLPDEDGLHFLARIRQKKYTLPVLILTARDTLTDKIAGLDVGADDYLVKPFALEELHARIRALLRRHNNQGESELIVGNLTLNMGRRQVWMGGEELILTPKEYALLSRLMLKAGSPVHREILYNDIYNWDNEPSTNTLEVHIHNLRDKVGKARIRTVRGFGYMLVANEEN
For B1, the binding result in the assay with Strep-LpxC (E. coli) and with His6-MBP-FtsH (E. coli) was “binds” each time.

B2: KdsD (enzyme, UniProt P45395 1-328)
chain: MSHVELQPGFDFQQAGKEVLAIERECLAELDQYINQNFTLACEKMFWCKGKVVVMGMGKSGHIGRKMAATFASTGTPSFFVHPGEAAHGDLGMVTPQDVVIAISNSGESSEITALIPVLKRLHVPLICITGRPESSMARAADVHLCVKVAKEACPLGLAPTSSTTATLVMGDALAVALLKARGFTAEDFALSHPGGALGRKLLLRVNDIMHTGDEIPHVKKTASLRDALLEVTRKNLGMTVICDDNMMIEGIFTDGDLRRVFDMGVDVRQLSIADVMTPGGIRVRPGILAVEALNLMQSRHITSVMVADGDHLLGVLHMHDLLRAGVV
Regarding B2, the binding entry with His6-MBP-FtsH (E. coli) is listed as “binds”.

B3: PpiD (protein, UniProt P0ADY1 1-623)
chain: MMDSLRTAANSLVLKIIFGIIIVSFILTGVSGYLIGGGNNYAAKVNDQEISRGQFENAFNSERNRMQQQLGDQYSELAANEGYMKTLRQQVLNRLIDEALLDQYARELKLGISDEQVKQAIFATPAFQVDGKFDNSRYNGILNQMGMTADQYAQALRNQLTTQQLINGVAGTDFMLKGETDELAALVAQQRVVREATIDVNALAAKQPVTEQEIASYYEQNKNNFMTPEQFRVSYIKLDAATMQQPVSDADIQSYYDQHQDQFTQPQRTRYSIIQTKTEDEAKAVLDELNKGGDFAALAKEKSADIISARNGGDMGWLEDATIPDELKNAGLKEKGQLSGVIKSSVGFLIVRLDDIQPAKVKSLDEVRDDIAAKVKHEKALDAYYALQQKVSDAASNDTESLAGAEQAAGVKATQTGWFSKDNLPEELNFKPVADAIFNGGLVGENGAPGINSDIITVDGDRAFVLRISEHKPEAVKPLADVQEQVKALVQHNKAEQQAKVDAEKLLVDLKAGKGAEAMQAAGLKFGEPKTLSRSGRDPISQAAFALPLPAKDKPSYGMATDMQGNVVLLALDEVKQGSMPEDQKKAMVQGITQNNAQIVFEALMSNLRKEAKIKIGDALEQQ
Regarding B3, in the assay with His6-MBP-FtsH (E. coli), the binding entry is listed as “binds”.

B4: DadA (enzyme, UniProt P0A6J5 1-432)
chain: MRVVILGSGVVGVASAWYLNQAGHEVTVIDREPGAALETSAANAGQISPGYAAPWAAPGVPLKAIKWMFQRHAPLAVRLDGTQFQLKWMWQMLRNCDTSHYMENKGRMVRLAEYSRDCLKALRAETNIQYEGRQGGTLQLFRTEQQYENATRDIAVLEDAGVPYQLLESSRLAEVEPALAEVAHKLTGGLQLPNDETGDCQLFTQNLARMAEQAGVKFRFNTPVDQLLCDGEQIYGVKCGDEVIKADAYVMAFGSYSTAMLKGIVDIPVYPLKGYSLTIPIAQEDGAPVSTILDETYKIAITRFDNRIRVGGMAEIVGFNTELLQPRRETLEMVVRDLYPRGGHVEQATFWTGLRPMTPDGTPVVGRTRFKNLWLNTGHGTLGWTMACGSGQLLSDLLSGRTPAIPYEDLSVARYSRGFTPSRPGHLHGAHS
For B4, in the assay with His6-MBP-FtsH (E. coli), the binding result is recorded as “binds”.

B5: FabD (enzyme, UniProt P0AAI9 1-309)
chain: MTQFAFVFPGQGSQTVGMLADMAASYPIVEETFAEASAALGYDLWALTQQGPAEELNKTWQTQPALLTASVALYRVWQQQGGKAPAMMAGHSLGEYSALVCAGVIDFADAVRLVEMRGKFMQEAVPEGTGAMAAIIGLDDASIAKACEEAAEGQVVSPVNFNSPGQVVIAGHKEAVERAGAACKAAGAKRALPLPVSVPSHCALMKPAADKLAVELAKITFNAPTVPVVNNVDVKCETNGDAIRDALVRQLYNPVQWTKSVEYMAAQGVEHLYEVGPGKVLTGLTKRIVDTLTASALNEPSAMAAALEL
As to B5, the binding entry with His6-MBP-FtsH (E. coli) was “binds”.

B6: LpxA (enzyme, UniProt P0A722 1-262)
chain: MIDKSAFVHPTAIVEEGASIGANAHIGPFCIVGPHVEIGEGTVLKSHVVVNGHTKIGRDNEIYQFASIGEVNQDLKYAGEPTRVEIGDRNRIRESVTIHRGTVQGGGLTKVGSDNLLMINAHIAHDCTVGNRCILANNATLAGHVSVDDFAIIGGMTAVHQFCIIGAHVMVGGCSGVAQDVPPYVIAQGNHATPFGVNIEGLKRRGFSREAITAIRNAYKLIYRSGKTLDEVKPEIAELAETYPEVKAFTDFFARSTRGLIR
Take B6: in the assay with His6-MBP-FtsH (E. coli), the binding result was “binds”.

B7: Psd (enzyme, UniProt P0A8K1 1-322)
chain: MLNSFKLSLQYILPKLWLTRLAGWGASKRAGWLTKLVIDLFVKYYKVDMKEAQKPDTASYRTFNEFFVRPLRDEVRPIDTDPNVLVMPADGVISQLGKIEEDKILQAKGHNYSLEALLAGNYLMADLFRNGTFVTTYLSPRDYHRVHMPCNGILREMIYVPGDLFSVNHLTAQNVPNLFARNERVICLFDTEFGPMAQILVGATIVGSIETVWAGTITPPREGIIKRWTWPAGENDGSVALLKGQEMGRFKLGSTVINLFAPGKVNLVEQLESLSVTKIGQPLAVSTETFVTPDAEPAPLPAEEIEAEHDASPLVDDKKDQV
For B7, the binding entry with Strep-LpxC (E. coli) and with His6-MBP-FtsH (E. coli) was “binds” throughout.

B8: SecD (protein, UniProt P0AG90 1-615)
chain: MLNRYPLWKYVMLIVVIVIGLLYALPNLFGEDPAVQITGARGVAASEQTLIQVQKTLQEEKITAKSVALEEGAILARFDSTDTQLRAREALMGVMGDKYVVALNLAPATPRWLAAIHAEPMKLGLDLRGGVHFLMEVDMDTALGKLQEQNIDSLRSDLREKGIPYTTVRKENNYGLSITFRDAKARDEAIAYLSKRHPDLVISSQGSNQLRAVMSDARLSEAREYAVQQNINILRNRVNQLGVAEPVVQRQGADRIVVELPGIQDTARAKEILGATATLEFRLVNTNVDQAAAASGRVPGDSEVKQTREGQPVVLYKRVILTGDHITDSTSSQDEYNQPQVNISLDSAGGNIMSNFTKDNIGKPMATLFVEYKDSGKKDANGRAVLVKQEEVINIANIQSRLGNSFRITGINNPNEARQLSLLLRAGALIAPIQIVEERTIGPTLGMQNIEQGLEACLAGLLVSILFMIIFYKKFGLIATSALIANLILIVGIMSLLPGATLSMPGIAGIVLTLAVAVDANVLINERIKEELSNGRTVQQAIDEGYRGAFSSIFDANITTLIKVIILYAVGTGAIKGFAITTGIGVATSMFTAIVGTRAIVNLLYGGKRVKKLSI
With B8, in the assay with His6-MBP-FtsH (E. coli), the binding result was “binds”.

B9: PhoP (protein, UniProt P23836 1-223)
chain: MRVLVVEDNALLRHHLKVQIQDAGHQVDDAEDAKEADYYLNEHIPDIAIVDLGLPDEDGLSLIRRWRSNDVSLPILVLTARESWQDKVEVLSAGADDYVTKPFHIEEVMARMQALMRRNSGLASQVISLPPFQVDLSRRELSINDEVIKLTAFEYTIMETLIRNNGKVVSKDSLMLQLYPDAELRESHTIDVLMGRLRKKIQAQYPQEVITTVRGQGYLFELR
As to B9, the binding result in the assay with His6-MBP-FtsH (E. coli) is on record as “binds”.

B10: FabH (enzyme, UniProt P0A6R0 1-317)
chain: MYTKIIGTGSYLPEQVRTNADLEKMVDTSDEWIVTRTGIRERHIAAPNETVSTMGFEAATRAIEMAGIEKDQIGLIVVATTSATHAFPSAACQIQSMLGIKGCPAFDVAAACAGFTYALSVADQYVKSGAVKYALVVGSDVLARTCDPTDRGTIIIFGDGAGAAVLAASEEPGIISTHLHADGSYGELLTLPNADRVNPENSIHLTMAGNEVFKVAVTELAHIVDETLAANNLDRSQLDWLVPHQANLRIISATAKKLGMSMDNVVVTLDRHGNTSAASVPCALDEAVRDGRIKPGQLVLLEAFGGGFTWGSALVRF
In the case of B10, the binding entry with Strep-LpxC (E. coli) and with His6-MBP-FtsH (E. coli) was “binds” each time.

B11: WaaA (enzyme, UniProt P0AC75 1-425)
chain: MLELLYTALLYLIQPLIWIRLWVRGRKAPAYRKRWGERYGFYRHPLKPGGIMLHSVSVGETLAAIPLVRALRHRYPDLPITVTTMTPTGSERVQSAFGKDVQHVYLPYDLPDALNRFLNKVDPKLVLIMETELWPNLIAALHKRKIPLVIANARLSARSAAGYAKLGKFVRRLLRRITLIAAQNEEDGARFVALGAKNNQVTVTGSLKFDISVTPQLAAKAVTLRRQWAPHRPVWIATSTHEGEESVVIAAHQALLQQFPNLLLILVPRHPERFPDAINLVRQAGLSYITRSSGEVPSTSTQVVVGDTMGELMLLYGIADLAFVGGSLVERGGHNPLEAAAHAIPVLMGPHTFNFKDICARLEQASGLITVTDATTLAKEVSSLLTDADYRSFYGRHAVEVLYQNQGALQRLLQLLEPYLPPKTH
In the case of B11, in the assay with Strep-LpxC (E. coli), the binding entry is “binds”.

B12: EptA (enzyme, UniProt P30845 1-547)
chain: MLKRLLKRPSLNLLAWLLLAAFYISICLNIAFFKQVLQALPLDSLHNVLVFLSMPVVAFSVINIVLTLSSFLWLNRPLACLFILVGAAAQYFIMTYGIVIDRSMIANIIDTTPAESYALMTPQMLLTLGFSGVLAALIACWIKIKPATSRLRSVLFRGANILVSVLLILLVAALFYKDYASLFRNNKELVKSLSPSNSIVASWSWYSHQRLANLPLVRIGEDAHRNPLMQNEKRKNLTILIVGETSRAENFSLNGYPRETNPRLAKDNVVYFPNTASCGTATAVSVPCMFSDMPREHYKEELAQHQEGVLDIIQRAGINVLWNDNDGGCKGACDRVPHQNVTALNLPDQCINGECYDEVLFHGLEEYINNLQGDGVIVLHTIGSHGPTYYNRYPPQFRKFTPTCDTNEIQTCTKEQLVNTYDNTLVYVDYIVDKAINLLKEHQDKFTTSLVYLSDHGESLGENGIYLHGLPYAIAPDSQKQVPMLLWLSEDYQKRYQVDQNCLQKQAQTQHYSQDNLFSTLLGLTGVETKYYQAADDILQTCRRVSE
Regarding B12, the binding result with Strep-LpxC (E. coli) and with His6-MBP-FtsH (E. coli) was “binds” throughout.
